In the supplement of paper PMC8728848:
Some of the results follow.

How the values were obtained:
Assay in all cases: glycan array binding signal (z-score within array); higher = stronger binding
Settings in all cases: glycan notation: IUPAC condensed, linker removed
[1] = target: Neu5Ac(a2-6)Gal(b1-3)GlcNAc(b1-3)[Gal(b1-4)GlcNAc(b1-6)]Gal(b1-4)Glc
In short: (§1)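 Glycan array binding is given as a within-array Z-score, which can be read as non-binding when negative. The arrays, 3228 of them, came from the Consortium for Functional Glycomics database and were retained only where the protein sequence was available. Z-scores were averaged across arrays of the same protein sequence at different concentrations or buffers and across linkers.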

Neu5Ac(a2-6)Gal(b1-4)Glc = target: Neu5Ac(a2-6)Gal(b1-4)Glc
In short: as §1

[2] = target: Neu5Ac(a2-6)Gal(b1-4)GlcNAc
In short: as §1

[3] = target: Neu5Ac(a2-6)Gal(b1-4)GlcNAc(b1-2)Man
In short: as §1

[4] = target: Neu5Ac(a2-6)Gal(b1-4)GlcNAc(b1-2)Man(a1-3)Man(b1-4)GlcNAc(b1-4)GlcNAc
In short: as §1

[5] = target: Neu5Ac(a2-6)Gal(b1-4)GlcNAc(b1-2)Man(a1-3)[Gal(b1-4)GlcNAc(b1-2)Man(a1-6)]Man(b1-4)GlcNAc(b1-4)GlcNAc
In short: as §1

[6] = target: Neu5Ac(a2-6)Gal(b1-4)GlcNAc(b1-2)Man(a1-3)[GlcNAc(b1-2)Man(a1-6)]Man(b1-4)GlcNAc(b1-4)GlcNAc
In short: as §1

[7] = target: Neu5Ac(a2-6)Gal(b1-4)GlcNAc(b1-2)Man(a1-3)[GlcNAc(b1-4)][Neu5Ac(a2-6)Gal(b1-4)GlcNAc(b1-2)Man(a1-6)]Man(b1-4)GlcNAc(b1-4)GlcNAc
In short: as §1

[8] = target: Neu5Ac(a2-6)Gal(b1-4)GlcNAc(b1-2)Man(a1-3)[Man(a1-6)]Man(b1-4)GlcNAc(b1-4)GlcNAc
In short: as §1

[9] = target: Neu5Ac(a2-6)Gal(b1-4)GlcNAc(b1-2)Man(a1-3)[Neu5Ac(a2-3)Gal(b1-4)GlcNAc(b1-2)Man(a1-6)]Man(b1-4)GlcNAc(b1-4)GlcNAc
In short: as §1

[10] = target: Neu5Ac(a2-6)Gal(b1-4)GlcNAc(b1-2)Man(a1-3)[Neu5Ac(a2-6)Gal(b1-4)GlcNAc(b1-2)Man(a1-6)]Man(b1-4)GlcNAc(b1-4)GlcNAc
In short: as §1

[11] = target: Neu5Ac(a2-6)Gal(b1-4)GlcNAc(b1-2)Man(a1-3)[Neu5Ac(a2-6)Gal(b1-4)GlcNAc(b1-2)Man(a1-6)]Man(b1-4)GlcNAc(b1-4)[Fuc(a1-6)]GlcNAc
In short: as §1

[12] = target: Neu5Ac(a2-6)Gal(b1-4)GlcNAc(b1-2)Man(a1-6)Man(b1-4)GlcNAc(b1-4)GlcNAc
In short: as §1

[13] = target: Neu5Ac(a2-6)Gal(b1-4)GlcNAc(b1-2)Man(a1-6)[Gal(b1-4)GlcNAc(b1-2)Man(a1-3)]Man(b1-4)GlcNAc(b1-4)GlcNAc
In short: as §1

[14] = target: Neu5Ac(a2-6)Gal(b1-4)GlcNAc(b1-2)Man(a1-6)[GlcNAc(b1-2)Man(a1-3)]Man(b1-4)GlcNAc(b1-4)GlcNAc
In short: as §1

[15] = target: Neu5Ac(a2-6)Gal(b1-4)GlcNAc(b1-2)Man(a1-6)[Man(a1-3)]Man(b1-4)GlcNAc(b1-4)GlcNAc
In short: as §1

[16] = target: Neu5Ac(a2-6)Gal(b1-4)GlcNAc(b1-2)[Neu5Ac(a2-6)Gal(b1-4)GlcNAc(b1-4)]Man(a1-3)[GlcNAc(b1-4)][Neu5Ac(a2-6)Gal(b1-4)GlcNAc(b1-2)[Neu5Ac(a2-6)Gal(b1-4)GlcNAc(b1-6)]Man(a1-6)]Man(b1-4)GlcNAc(b1-4)GlcNAc
In short: as §1

[17] = target: Neu5Ac(a2-6)Gal(b1-4)GlcNAc(b1-2)[Neu5Ac(a2-6)Gal(b1-4)GlcNAc(b1-4)]Man(a1-3)[GlcNAc(b1-4)][Neu5Ac(a2-6)Gal(b1-4)GlcNAc(b1-4)Man(a1-6)]Man(b1-4)GlcNAc(b1-4)GlcNAc
In short: as §1

[18] = target: Neu5Ac(a2-6)Gal(b1-4)GlcNAc(b1-2)[Neu5Ac(a2-6)Gal(b1-4)GlcNAc(b1-6)]Man(a1-6)[Neu5Ac(a2-6)Gal(b1-4)GlcNAc(b1-2)Man(a1-3)][GlcNAc(b1-4)]Man(b1-4)GlcNAc(b1-4)GlcNAc
In short: as §1

[19] = target: Neu5Ac(a2-6)Gal(b1-4)GlcNAc(b1-3)Gal(b1-3)GlcNAc
In short: as §1

[20] = target: Neu5Ac(a2-6)Gal(b1-4)GlcNAc(b1-3)Gal(b1-4)GlcNAc
In short: as §1

[21] = target: Neu5Ac(a2-6)Gal(b1-4)GlcNAc(b1-3)Gal(b1-4)GlcNAc(b1-2)Man(a1-3)[Neu5Ac(a2-6)Gal(b1-4)GlcNAc(b1-3)Gal(b1-4)GlcNAc(b1-2)Man(a1-6)]GalNAc
In short: as §1

[22] = target: Neu5Ac(a2-6)Gal(b1-4)GlcNAc(b1-3)Gal(b1-4)GlcNAc(b1-3)Gal(b1-4)GlcNAc
In short: as §1

[23] = target: Neu5Ac(a2-6)Gal(b1-4)GlcNAc(b1-3)Gal(b1-4)GlcNAc(b1-3)Gal(b1-4)GlcNAc(b1-2)Man(a1-3)[Neu5Ac(a2-6)Gal(b1-4)GlcNAc(b1-3)Gal(b1-4)GlcNAc(b1-3)Gal(b1-4)GlcNAc(b1-2)Man(a1-6)]GalNAc
In short: as §1

[24] = target: Neu5Ac(a2-6)Gal(b1-4)GlcNAc(b1-3)Gal(b1-4)GlcNAc(b1-3)GalNAc
In short: as §1

[25] = target: Neu5Ac(a2-6)Gal(b1-4)GlcNAc(b1-3)Gal(b1-4)GlcNAc(b1-3)[Neu5Ac(a2-6)Gal(b1-4)GlcNAc(b1-3)Gal(b1-4)GlcNAc(b1-6)]GalNAc
In short: as §1

[26] = target: Neu5Ac(a2-6)Gal(b1-4)GlcNAc(b1-3)Gal(b1-4)GlcNAc(b1-6)[Gal(b1-3)]GalNAc
In short: as §1

[27] = target: Neu5Ac(a2-6)Gal(b1-4)GlcNAc(b1-3)Gal(b1-4)[Fuc(a1-3)]GlcNAc(b1-3)Gal(b1-4)[Fuc(a1-3)]GlcNAc
In short: as §1

[28] = target: Neu5Ac(a2-6)Gal(b1-4)GlcNAc(b1-3)GalNAc
In short: as §1

[29] = target: Neu5Ac(a2-6)Gal(b1-4)GlcNAc(b1-3)[Neu5Ac(a2-6)Gal(b1-4)GlcNAc(b1-6)]GalNAc
In short: as §1

[30] = target: Neu5Ac(a2-6)Gal(b1-4)GlcNAc(b1-6)GalNAc
In short: as §1

[31] = target: Neu5Ac(a2-6)Gal(b1-4)GlcNAc(b1-6)[Gal(b1-3)GlcNAc(b1-3)]Gal(b1-4)Glc
In short: as §1

[32] = target: Neu5Ac(a2-6)Gal(b1-4)GlcNAc(b1-6)[Gal(b1-3)]GalNAc
In short: as §1

[33] = target: Neu5Ac(a2-6)Gal(b1-4)GlcNAc6S
In short: as §1

Neu5Ac(a2-6)GalNAc = target: Neu5Ac(a2-6)GalNAc
In short: as §1

[34] = target: Neu5Ac(a2-6)GalNAc(b1-4)GlcNAc
In short: as §1

[35] = target: Neu5Ac(a2-6)GalNAc(b1-4)GlcNAc6S
In short: as §1

[36] = target: Neu5Ac(a2-6)GlcNAc(b1-4)GlcNAc
In short: as §1

B1: PX15642A-pgi-501-20-501 (Parabacteroides gingivalis) (protein)
chain: CELDRDPEGKDFQQPYTSFVQTKQNRDGLYALLRNTENPRMHFYQELQSDMYCTTITDGNSLAPFVNWDLGILNDHGRADEDEVSGIAGYYFVYNRLNQQANAFVNNTEAALQNQVYKNSTEIANAKSFLAEGKVLQALAIWRLMDRFSFHESVTEVNSGAKDLGVILLKEYNPGYIGPRATKAQCYDYILSRLSEAIEVLPENRESVLYVSRDYAYALRARIYLALGEYGKAAADAKMVVDKYPLIGAADASEFENIYRSDANNPEIIFRGFASATLGSFTATTLNGAAPAGKDIKYNPSAVPFQWVVDLYENEDFRKSVYIAKVVKKDKGYLVNKFLEDKAYRDVQDKPNLKVGARYFSVAEVYLILVESALQTGDTPTAEKYLKALSKARGAEVSVVNMEALQAERTRELIGEGSRLRDMVRWSIPNNHDAFETQPGLEGFANTTPLKAQAPVGFYAYTWEFPQRDRQTNPQLIKNWPI
[1]
  glycan array binding signal (z-score): -0.73
Neu5Ac(a2-6)Gal(b1-4)Glc
  glycan array binding signal (z-score): -0.022
[2]
  glycan array binding signal (z-score): -0.264
[3]
  glycan array binding signal (z-score): -0.844
[4]
  glycan array binding signal (z-score): 1.01
[5]
  glycan array binding signal (z-score): -0.565
[6]
  glycan array binding signal (z-score): -0.482
[7]
  glycan array binding signal (z-score): -0.519
[8]
  glycan array binding signal (z-score): -0.971
[9]
  glycan array binding signal (z-score): 0.773
[10]
  glycan array binding signal (z-score): 0.036
[11]
  glycan array binding signal (z-score): -0.924
[12]
  glycan array binding signal (z-score): 0.401
[13]
  glycan array binding signal (z-score): -0.724
[14]
  glycan array binding signal (z-score): 0.319
[15]
  glycan array binding signal (z-score): -0.607
[16]
  glycan array binding signal (z-score): 0.098
[17]
  glycan array binding signal (z-score): 0.114
[18]
  glycan array binding signal (z-score): -0.568
[19]
  glycan array binding signal (z-score): 0.537
[20]
  glycan array binding signal (z-score): -0.221
[21]
  glycan array binding signal (z-score): 0.657
[22]
  glycan array binding signal (z-score): 0.644
[23]
  glycan array binding signal (z-score): 2.23
[24]
  glycan array binding signal (z-score): -0.926
[25]
  glycan array binding signal (z-score): 0.497
[26]
  glycan array binding signal (z-score): -0.139
[27]
  glycan array binding signal (z-score): -0.278
[28]
  glycan array binding signal (z-score): -0.516
[29]
  glycan array binding signal (z-score): -0.25
[30]
  glycan array binding signal (z-score): 0.747
[31]
  glycan array binding signal (z-score): -0.099
[32]
  glycan array binding signal (z-score): -0.714
[33]
  glycan array binding signal (z-score): -0.049
Neu5Ac(a2-6)GalNAc
  glycan array binding signal (z-score): -0.126
[34]
  glycan array binding signal (z-score): -0.81
[35]
  glycan array binding signal (z-score): 0.286
[36]
  glycan array binding signal (z-score): 0.131
